# Most entries show no effect beyond the scatter of the controls.
# Assays:
# Test in all cases: normalised response (% of control), CellTox Green; higher = less cell death (100 = DMSO, 0 = benzethonium chloride kill control)
# Details in all cases: incubation time: 72 h
# HCC1599 = test system: HCC1599
# Protocol: (§1)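 DSRT, 72 h incubation, CellTox Green / CellTiter-Glo readout. Signal is normalised to DMSO and benzethonium chloride controls. Value is the normalised response at dose 2.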
# CAL-120 = test system: CAL-120
# Protocol: as §1
# MDA-MB-436 = test system: MDA-MB-436
# Protocol: as §1
# CAL-85-1 = test system: CAL-85-1
# Protocol: as §1
# CAL-51 = test system: CAL-51
# Protocol: as §1
# DU-4475 = test system: DU-4475
# Protocol: as §1
# CAL-148 = test system: CAL-148
# Protocol: as §1
# BT-474 = test system: BT-474
# Protocol: as §1
# BT-549 = test system: BT-549
# Protocol: as §1
# MCF-10A = test system: MCF-10A
# Protocol: as §1
# MDA-MB-453 = test system: MDA-MB-453
# Protocol: as §1
# MDA-MB-231 = test system: MDA-MB-231
# Protocol: as §1
# MDA-MB-468 = test system: MDA-MB-468
# Protocol: as §1
# Hs578T = test system: Hs578T
# Protocol: as §1
# HDQ-P1 = test system: HDQ-P1
# Protocol: as §1
# HCC1143 = test system: HCC1143
# Protocol: as §1
# HCC1937 = test system: HCC1937
# Protocol: as §1
# MFM-223 = test system: MFM-223
# Protocol: as §1
Structure (SMILES),normalised response (HCC1599),normalised response (CAL-120),normalised response (MDA-MB-436),normalised response (CAL-85-1),normalised response (CAL-51),normalised response (DU-4475),normalised response (CAL-148),normalised response (BT-474),normalised response (BT-549),normalised response (MCF-10A),normalised response (MDA-MB-453),normalised response (MDA-MB-231),normalised response (MDA-MB-468),normalised response (Hs578T),normalised response (HDQ-P1),normalised response (HCC1143),normalised response (HCC1937),normalised response (MFM-223)
Cc1ccc(C(=O)N(CCCN)[C@@H](c2oc3cc(Cl)ccc3c(=O)c2Cc2ccccc2)C(C)C)cc1 (0.1 nM),95%,99%,53.6%,95.8%,94.6%,92.4%,52.3%,101%,90.4%,81.5%,95.9%,104%,110%,54.7%,97.4%,111%,–,–
Cn1cc(C[C@@H](N)C(=O)O)c2ccccc21 [1-methyl-D-tryptophan] (5 nM),94.7%,60%,74.1%,89.7%,98.5%,95.6%,106%,86.5%,89.9%,66.7%,95%,103%,92.3%,115%,105%,85.1%,85.8%,99.1%
COc1cc2nccc(Oc3ccc(NC(=O)C4(C(=O)Nc5ccc(F)cc5)CC4)cc3)c2cc1OC [Cabozantinib] (1 nM),91.4%,98.7%,83.5%,95.3%,107%,97.3%,55.7%,95.6%,87.4%,104%,100%,99.6%,77.2%,105%,94.5%,113%,67.4%,79.6%
CN(C)/N=N/c1[nH]cnc1C(N)=O [Dacarbazine] (10 nM),107%,96.2%,100%,101%,103%,97.1%,107%,96.7%,105%,98.2%,96.2%,104%,83.9%,97.4%,118%,112%,75%,98.8%
Cc1c(C(=O)Nc2ccc(N3C[C@@H](C)O[C@@H](C)C3)nc2)cccc1-c1ccc(OC(F)(F)F)cc1 [Erismodegib] (10 nM),111%,105%,104%,95.2%,104%,111%,90.1%,99.7%,93.8%,–,103%,103%,80.9%,107%,117%,114%,–,100%
CCCCCCCCCCCCCCCCCCOP(=O)([O-])OC1CC[N+](C)(C)CC1 [Perifosine] (2.5 nM),110%,99.8%,93.9%,101%,76.4%,92.8%,112%,103%,102%,59.1%,91.9%,98.8%,105%,115%,113%,–,98.3%,75.3%
C=CC[C@@H]1/C=C(\C)C[C@H](C)C[C@H](OC)[C@H]2O[C@@](O)(C(=O)C(=O)N3CCCC[C@H]3C(=O)O[C@H](/C(C)=C/[C@@H]3CC[C@@H](O)[C@H](OC)C3)[C@H](C)[C@@H](O)CC1=O)[C@H](C)C[C@@H]2OC [Tacrolimus] (10 nM),101%,98.8%,66.5%,102%,107%,99.3%,105%,102%,105%,99.8%,–,95.2%,108%,78.1%,–,107%,91.9%,99.1%
CN(C)CCOc1ccc(/C(=C(/CCCl)c2ccccc2)c2ccccc2)cc1 [Toremifene] (10 nM),106%,100%,95.1%,99.3%,116%,100%,108%,103%,100%,106%,101%,104%,138%,111%,108%,–,109%,104%

# Reference: the supplement of paper PMC4862054
